Data: article PMC8469114
Results are given in words; binding and its absence hold for the method and conditions named. In cells and extracts the contact can be indirect. Some entries that bind do so weakly or less than the wild type.

By UniProt entry, the sequences of proteins in these tests, tags left out. Residues count along the entry.
UniProt Q9NZQ7, residues 19-290: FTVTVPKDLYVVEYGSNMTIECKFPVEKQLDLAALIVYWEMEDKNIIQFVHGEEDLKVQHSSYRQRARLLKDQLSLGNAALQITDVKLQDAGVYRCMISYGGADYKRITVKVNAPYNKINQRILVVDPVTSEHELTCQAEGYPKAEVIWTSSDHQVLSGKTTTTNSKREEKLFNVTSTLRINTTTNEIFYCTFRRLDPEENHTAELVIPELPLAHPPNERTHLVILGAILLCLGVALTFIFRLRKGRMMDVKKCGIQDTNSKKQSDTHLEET
UniProt P35241: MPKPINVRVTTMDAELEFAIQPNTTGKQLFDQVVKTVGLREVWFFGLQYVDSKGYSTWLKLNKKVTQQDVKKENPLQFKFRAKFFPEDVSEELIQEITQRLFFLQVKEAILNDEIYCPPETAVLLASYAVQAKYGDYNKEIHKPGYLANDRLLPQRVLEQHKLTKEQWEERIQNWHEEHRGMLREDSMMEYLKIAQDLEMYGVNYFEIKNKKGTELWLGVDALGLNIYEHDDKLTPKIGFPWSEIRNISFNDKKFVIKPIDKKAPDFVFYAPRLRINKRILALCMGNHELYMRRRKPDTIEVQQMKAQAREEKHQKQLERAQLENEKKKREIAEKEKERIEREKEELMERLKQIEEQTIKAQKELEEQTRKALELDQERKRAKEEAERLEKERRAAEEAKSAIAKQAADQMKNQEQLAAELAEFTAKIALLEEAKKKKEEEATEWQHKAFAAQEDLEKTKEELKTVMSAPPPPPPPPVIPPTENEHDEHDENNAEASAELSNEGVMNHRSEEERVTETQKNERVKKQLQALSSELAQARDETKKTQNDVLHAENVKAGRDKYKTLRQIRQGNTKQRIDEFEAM
UniProt P15311: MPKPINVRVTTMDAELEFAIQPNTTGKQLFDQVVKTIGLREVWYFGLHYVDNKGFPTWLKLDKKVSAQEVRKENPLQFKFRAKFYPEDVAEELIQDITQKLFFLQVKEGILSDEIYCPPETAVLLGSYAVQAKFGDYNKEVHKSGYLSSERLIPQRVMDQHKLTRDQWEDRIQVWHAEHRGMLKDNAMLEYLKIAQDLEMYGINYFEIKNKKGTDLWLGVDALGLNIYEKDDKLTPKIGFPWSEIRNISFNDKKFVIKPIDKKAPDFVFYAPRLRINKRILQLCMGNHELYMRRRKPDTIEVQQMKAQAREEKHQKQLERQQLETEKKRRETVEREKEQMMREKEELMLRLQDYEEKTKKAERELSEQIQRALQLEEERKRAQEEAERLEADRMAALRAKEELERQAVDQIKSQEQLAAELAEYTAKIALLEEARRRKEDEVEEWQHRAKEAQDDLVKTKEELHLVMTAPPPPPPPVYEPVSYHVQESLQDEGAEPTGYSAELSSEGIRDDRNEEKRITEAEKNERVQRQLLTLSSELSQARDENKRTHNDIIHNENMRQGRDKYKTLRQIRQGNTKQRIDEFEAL
UniProt P26038: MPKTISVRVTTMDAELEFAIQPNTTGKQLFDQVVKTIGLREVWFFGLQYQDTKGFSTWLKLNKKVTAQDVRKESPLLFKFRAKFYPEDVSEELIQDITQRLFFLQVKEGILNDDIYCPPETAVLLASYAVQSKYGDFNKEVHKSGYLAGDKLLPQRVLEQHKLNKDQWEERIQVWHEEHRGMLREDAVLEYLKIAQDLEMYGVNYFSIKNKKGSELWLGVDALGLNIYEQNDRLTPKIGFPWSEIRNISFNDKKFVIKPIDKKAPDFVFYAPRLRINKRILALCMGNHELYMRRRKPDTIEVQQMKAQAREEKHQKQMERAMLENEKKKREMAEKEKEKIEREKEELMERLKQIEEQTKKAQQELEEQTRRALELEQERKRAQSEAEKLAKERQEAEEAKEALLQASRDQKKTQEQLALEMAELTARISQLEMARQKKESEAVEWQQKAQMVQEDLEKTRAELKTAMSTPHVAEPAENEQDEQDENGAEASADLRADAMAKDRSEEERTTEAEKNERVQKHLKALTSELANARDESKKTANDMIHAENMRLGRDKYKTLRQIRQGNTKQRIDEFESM

Experiments:
Assay in all cases: co-IP; pre-cleared HeLa whole-cell lysate (RIPA buffer with protease inhibitors) incubated overnight at 4 °C with rabbit Ab against PD-L1, ezrin, radixin or moesin, or control Ab (1:30); nProtein A Sepharose; washed thrice with RIPA buffer; Western blot
[1] = biological target: programmed cell death ligand-1 (human (endogenous in HeLa)) (UniProt Q9NZQ7)
[2] = biological target: radixin (human (endogenous in HeLa)) (UniProt P35241)
[3] = biological target: ezrin (human (endogenous in HeLa)) (UniProt P15311)
[4] = biological target: moesin (human (endogenous in HeLa)) (UniProt P26038)

phosphorylated ezrin (from UniProt P15311 1-586)
binding [1]: binds

ezrin (from UniProt P15311 1-586)
binding [1]: binds

programmed cell death ligand-1 (from UniProt Q9NZQ7 19-290)
binding [2]: binds
binding [3]: binds
binding [4]: binds

moesin (from UniProt P26038 1-577)
binding [1]: binds

radixin (from UniProt P35241 1-583)
binding [1]: binds
